Laboratory results as given in patent EP4678627A1, “NOVEL FERROPTOSIS INHIBITORS” (Universiteit Antwerpen, priority 2024, dated 2026).

Assay: in vitro
Settings: male, CD-1, mouse, microsomes, pH 7.4

CN(C)CCOC(c1ccccc1)c1ccccc1 [Diphenhydramine]
microsomal CLint at 1 µM: 45.1 µL/min/mg
